The other results are listed elsewhere or left out. Values are raw readings; no control value is given beside them.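 First-pass screen: polymyxin B was added at a level that permeabilizes the Salmonella outer membrane while sparing the inner membrane. DMSO wells, with and without polymyxin B, defined maximum growth. Because plates differed from one another, each plate's data were ranked separately and the compounds with the lowest OD600 were carried forward as hits.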
Test system: Salmonella enterica serovar Typhimurium SL1344
Assay: bacterial growth OD600 after 18 h with compound and polymyxin B; higher = more bacterial growth (less inhibition)
Conditions: 50 µM, Mueller-Hinton broth

Row | Compound | bacterial growth OD600 (polymyxin B 0.75 µg/mL) | bacterial growth OD600 (polymyxin B 1 µg/mL)
1 | CC(CO)Nc1ccc(-c2nc(Cc3ccc(F)cc3)no2)cn1 (stereo unspecified) | 0.74 | 
2 | CN(C(=O)c1ccc(OC2CCN(C(=O)C3CC3)CC2)cc1)C1CCCCC1 |  | 0.93
3 | CCC1CN(Cc2cccs2)Cc2cc(OC)ccc2O1 (stereo unspecified) | 0.757 | 
4 | CN(C)c1ncc2c(n1)CCCC2NC(=O)CCN1CCCCC1=O (stereo unspecified) |  | 0.971
5 | O=C(Nc1ccc(-c2cccc(F)c2)cc1)C1CCCN(C(=O)Cc2ccccn2)C1 (stereo unspecified) | 0.001 | 
6 | CCOC(=O)C1(Cc2ccccc2C)CCCN(C(=O)CCn2nccc2C)C1 (stereo unspecified) |  | 0.645
7 | Cc1cnc(C)c(-c2ccc3c(c2)CC(CNC(=O)C2(c4ccc(Cl)cc4)CCC2)O3)n1 (stereo unspecified) | 0.862 | 
8 | COc1ccc(-c2ccccc2NC(=O)C2CCCN(CCC(C)C)C2)cc1 (stereo unspecified) |  | 0.909
9 | CN(Cc1cnn(C)c1)C(=O)CC(c1cccc(O)c1)c1cccc(Cl)c1 (stereo unspecified) | 0.82 | 
10 | COc1ccc(C2c3[nH]c4ccccc4c3CCN2Cc2cc[nH]n2)c(F)c1 (stereo unspecified) |  | 0.814
11 | Oc1cc(-c2cccc(Cl)c2)cc2c1OCCN(Cc1ccccc1)C2 | 0.108 | 
12 | O=C(c1cscn1)N1CCC(C2CCN(c3ncccn3)CC2)C1 (stereo unspecified) | 0.788 | 
13 | Fc1ccc(Cc2noc(-c3ccc(N4CCCOCC4)nc3)n2)cc1 | 0.187 | 
14 | Cc1c(CN2CCC(C3CCN(Cc4cccnc4)CC3)C2)cnn1C (stereo unspecified) |  | 1
15 | COc1ccc(CN(C)CC(C)C)cc1OCC(O)CN1CCN(C)CC1 (stereo unspecified) |  | 0.979
16 | CN1C(=O)CC(CC(=O)N2CCC(c3ccncc3)CC2)(c2ccc(-c3ccccc3)cc2)C1=O (stereo unspecified) | 0.007 | 

Some values from the results shown.
Fc1ccc(Cc2noc(-c3ccc(N4CCCOCC4)nc3)n2)cc1 – bacterial growth OD600 (polymyxin B 0.75 µg/mL): 0.187
COc1ccc(-c2ccccc2NC(=O)C2CCCN(CCC(C)C)C2)cc1 (stereo unspecified) – bacterial growth OD600 (polymyxin B 1 µg/mL): 0.909

(more compounds)

Row | Compound | bacterial growth OD600 (polymyxin B 0.75 µg/mL) | bacterial growth OD600 (polymyxin B 1 µg/mL)
17 | O=C1CC(NC2CCSCC2)CN1Cc1ccccc1C(F)(F)F (stereo unspecified) |  | 0.96
18 | O=C(CN1CCOC1=O)N1CCCC(N2CCN(Cc3ccc4c(c3)OCO4)CC2)C1 (stereo unspecified) |  | 0.954
19 | CSCCC(=O)N1CCc2onc(-c3ccc(Cl)cc3)c2C1 | 0.492 | 
20 | COc1ccc(CNC(=O)c2cnn(-c3nccc(-c4ccccc4OC)n3)c2C2CC2)c(OC)c1 | 0.69 | 
21 | CC(=O)N1CCC(N2CCCC(CCc3ccccc3C(F)(F)F)C2)CC1 (stereo unspecified) | 0.722 | 
22 | CCOC(=O)C1(Cc2ccc(OC)cc2)CCN(C(=O)CCc2ccccc2OC)CC1 |  | 0.011
23 | COc1ccc(C(CC(=O)N(C)Cc2c(C)n[nH]c2C)c2ccccc2)cc1 (stereo unspecified) |  | 0.661
24 | COc1ccccc1CN1CCC2(CC1)c1ccccc1[C@@H](NC(=O)Cc1cccs1)[C@@H]2OC | 0.846 | 
25 | CCN(CC)CC(O)COc1ccc(CN(C)Cc2ccccn2)cc1OC (stereo unspecified) | 0.808 | 
26 | COc1cccc(CCC(=O)NCC2Cc3cc(-c4ccnc(SC)n4)cc(Cl)c3O2)c1 (stereo unspecified) | 0.912 | 
27 | Cc1ncc2c(c1CNC(=O)c1ccccc1F)CCN(C(=O)Cc1c(F)ccc(F)c1F)C2 | 0.857 | 
28 | COc1ccc(C(=O)NC2CCCN(C3CCCCCC3)C2)cc1F (stereo unspecified) |  | 0.908
29 | COc1ccc(CN2CCNC(=O)C2CC(=O)N2CCCCC2)c(C)c1C (stereo unspecified) |  | 0.955
30 | Cc1cc(-c2nn(-c3ccccc3F)cc2CN(C)C2CCOCC2)c(C)s1 |  | 0.81
31 | COc1ccc(CCNC2CCN(c3ccc(C(=O)NC(C)c4ccccc4)cc3)CC2)cc1 (stereo unspecified) | 0.81 | 
